PubChem BioAssay AID1259308 | NCATS | 2017

Screen: 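Knock-downs that increase output of a recombinant reporter protein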 (primary screen)
System: human HEK293 embryonic kidney cells stably expressing firefly luciferase (HEK-CMV-Luc2-Hygro)
Reagents: single siRNA against human genes, 0.8 pmol siRNA per well
Time to read-out: 72 h
Measurement: 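Luciferase light (ONE-Glo) measured on one replicate plate set and viability (CellTiter-Glo) on the other, scaled to a negative control siRNA, with robust z-scores and luciferase per cell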
Direction: total luciferase, z-score: higher = more reporter protein produced
Call rule: 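An siRNA counts as active if its total luciferase robust z-score exceeds 3; genes with two or more such siRNAs out of three were retested with fresh siRNAs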
Calls: active = raised luciferase; inactive = no rise
Here is one part, drawn at random, of about 59,000 reagents. About 1,510 of them (2.6%) count as active. 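Calls use total luciferase alone and ignore viability, so some active siRNAs may act by altering cell number.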 Reagents against one gene are numbered here. Further read-outs or replicates are left out here. Reagent sequences are not shown.

With TTC13 #1, what does the deposit list?
total luciferase, z-score: -0.0857; Outcome: inactive

How did the screen score TTC13 #2?
total luciferase, z-score: -0.568; Outcome: inactive

Which result is listed for TTC13 #3?
total luciferase, z-score: 0.377; Outcome: inactive

For NOB1 #1, what was measured?
total luciferase, z-score: -1.62; Outcome: inactive

For NOB1 #2, what does the deposit list?
total luciferase, z-score: -2.04; Outcome: inactive

With NOB1 #3, how do the results read?
total luciferase, z-score: 2.11; Outcome: inactive

2 of these entries, reformatted:
{"target gene": "TTC13", "reagent": 3, "total luciferase, z-score": 0.377, "Outcome": "inactive"}
{"target gene": "NOB1", "reagent": 1, "total luciferase, z-score": -1.62, "Outcome": "inactive"}

The listing continues:
With NKX2-6 #1, what was measured?
total luciferase, z-score: -1.25; Outcome: inactive

Which result is listed for NKX2-6 #2?
total luciferase, z-score: -0.283; Outcome: inactive

For NKX2-6 #3, how do the results read?
total luciferase, z-score: -0.0396; Outcome: inactive

With RBBP8 #1, what was measured?
total luciferase, z-score: 0.81; Outcome: inactive

With RBBP8 #2, what was measured?
total luciferase, z-score: 0.106; Outcome: inactive

What did the screen give for RBBP8 #3?
total luciferase, z-score: 0.923; Outcome: inactive
